In patent US20240016846A1:
No constants are given. Whether binding was seen depends on the method and setting. Some entries that bind do so weakly or less than the wild type.

Sequences of proteins named here, by UniProt entry; tags and fusion partners are left off. A change or cut given only in a name is not applied to a line headed by its entry.
UniProt Q9NZQ7: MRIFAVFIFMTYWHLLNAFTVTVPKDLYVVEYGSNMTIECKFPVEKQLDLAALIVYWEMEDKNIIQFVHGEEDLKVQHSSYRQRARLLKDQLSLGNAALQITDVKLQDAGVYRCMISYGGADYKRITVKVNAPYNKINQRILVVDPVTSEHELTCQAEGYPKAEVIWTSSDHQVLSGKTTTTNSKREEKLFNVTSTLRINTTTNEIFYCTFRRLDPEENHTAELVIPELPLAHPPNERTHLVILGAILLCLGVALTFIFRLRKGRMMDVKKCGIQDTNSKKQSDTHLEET

Target: HA PD-1 chimeric cytokine receptor: HAPD1.TpoR(478-582).IL7Ra(316-459).IL12Rb2(775-825)
Test: cell-binding assay, flow cytometry on HA PD-1 chimeric cytokine receptor CAR-T cells (FIG. 7A)

Question: For “recombinant human PD-L1-Fc (Biolegend) (from UniProt Q9NZQ7 19-238) (Fc fusion)”, which binding is on record?
Answer: The binding was “binds”.
